This is an account of results in paper PMC4956616.

Protein sequences, listed by entry. Tags and fused reporters are not part of them. Lines headed by an entry give the natural chain unless they say otherwise; changes in a name come on top. Residues count along the entry.
UniProt P40616, residues 15-181: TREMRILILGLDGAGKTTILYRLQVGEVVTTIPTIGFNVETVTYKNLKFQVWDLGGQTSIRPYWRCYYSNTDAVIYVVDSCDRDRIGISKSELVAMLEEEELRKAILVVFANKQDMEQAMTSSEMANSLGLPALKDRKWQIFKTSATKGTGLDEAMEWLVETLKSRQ
UniProt Q92538, residues 1-566: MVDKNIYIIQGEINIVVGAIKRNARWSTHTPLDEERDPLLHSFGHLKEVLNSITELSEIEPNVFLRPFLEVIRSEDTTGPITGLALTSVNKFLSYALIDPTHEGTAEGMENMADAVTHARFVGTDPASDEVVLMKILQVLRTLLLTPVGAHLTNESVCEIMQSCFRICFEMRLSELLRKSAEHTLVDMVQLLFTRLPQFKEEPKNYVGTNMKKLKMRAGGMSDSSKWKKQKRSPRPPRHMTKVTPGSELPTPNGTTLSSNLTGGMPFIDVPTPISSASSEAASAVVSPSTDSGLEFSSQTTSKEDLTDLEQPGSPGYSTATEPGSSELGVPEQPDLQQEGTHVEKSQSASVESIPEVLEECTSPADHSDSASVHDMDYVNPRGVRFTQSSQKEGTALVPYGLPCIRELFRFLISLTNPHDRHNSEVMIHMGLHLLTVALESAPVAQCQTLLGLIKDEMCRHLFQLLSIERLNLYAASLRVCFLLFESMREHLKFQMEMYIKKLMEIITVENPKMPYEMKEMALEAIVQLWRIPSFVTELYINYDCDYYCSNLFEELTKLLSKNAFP

Residue numbers refer to the chain shown, from its start. No constants are given. Whether binding was seen depends on the method and setting. For some assays here: Tags and fused reporters may be left off the sequences shown.

Test [1] deals with GST-Arl1^ΔN14 (human Arl1 residues 15–181), loaded with GMP-PNP or GDP (human) (UniProt P40616). The experiment in a line: pull-down; 2 nM GST-Arl1 loaded with GMP-PNP or GDP mixed with 2 nM His6-tagged protein in 500 μl buffer C (20 mM Tris-HCl, 110 mM KCl, 1 mM DTT, 0.1% Triton X-100) plus 5 mM MgCl2, 4°C 30 min, captured on glutathione-Sepharose; SDS-PAGE, Coomassie; both purified.

In test [2] the target is T1, His6-DCB^BIG1 Gln200Glu (human) (UniProt Q9Y6D6).
T1 sequence: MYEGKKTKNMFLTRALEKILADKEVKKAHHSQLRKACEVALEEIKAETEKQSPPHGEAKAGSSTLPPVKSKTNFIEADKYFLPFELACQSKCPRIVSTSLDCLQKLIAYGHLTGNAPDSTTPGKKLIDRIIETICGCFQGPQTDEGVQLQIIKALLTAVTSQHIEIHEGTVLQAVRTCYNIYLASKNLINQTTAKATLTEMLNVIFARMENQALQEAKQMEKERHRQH
The experiment in a line: pull-down; Ni-NTA beads preloaded with His6-tagged DCB^BIG1 variants mixed with 1 nM GST-Arl1^GMP-PNP in 500 μl buffer C plus 5 mM MgCl2 and 40 mM imidazole; SDS-PAGE, Coomassie; both purified.

Test [3] addresses T2, His6-DCB^BIG1 Leu156Asp (human) (UniProt Q9Y6D6).
T2 sequence: T1 sequence with L156D, E200Q
The test is described as above.

In test [4] the target is T3, His6-DCB^BIG1 Lys105Asp (human) (UniProt Q9Y6D6).
T3 sequence: T1 sequence with K105D, E200Q
The description is as above.

For test [5], the target named is T4, His6-DCB^BIG1 Tyr109Lys (human) (UniProt Q9Y6D6).
T4 sequence: T1 sequence with Y109K, E200Q
Described as above.

Turning to “His6-tagged GBF1 N-terminal fragment (1–566) (from UniProt Q92538 1-566) (domain or fragment)”, in test [1], the binding result is reported as “no binding (tested: 2 nM of the His6-tagged protein)”.
Consider “GST-Arl1^ΔN14 (human Arl1 residues 15–181), loaded with GMP-PNP or GDP (from UniProt P40616 15-181) (domain or fragment)”, for which the binding result in test [2], in test [3], in test [4] and in test [5] was “no binding (tested: 1 nM GST-Arl1^GMP-PNP)” throughout.
